# Assay results taken from paper PMC5996148.
# The chains behind the UniProt entries cited, without tags or fusion partners. Where a name states a change or a piece, a line headed by the entry shows the natural chain unless it says otherwise.
# UniProt P04053: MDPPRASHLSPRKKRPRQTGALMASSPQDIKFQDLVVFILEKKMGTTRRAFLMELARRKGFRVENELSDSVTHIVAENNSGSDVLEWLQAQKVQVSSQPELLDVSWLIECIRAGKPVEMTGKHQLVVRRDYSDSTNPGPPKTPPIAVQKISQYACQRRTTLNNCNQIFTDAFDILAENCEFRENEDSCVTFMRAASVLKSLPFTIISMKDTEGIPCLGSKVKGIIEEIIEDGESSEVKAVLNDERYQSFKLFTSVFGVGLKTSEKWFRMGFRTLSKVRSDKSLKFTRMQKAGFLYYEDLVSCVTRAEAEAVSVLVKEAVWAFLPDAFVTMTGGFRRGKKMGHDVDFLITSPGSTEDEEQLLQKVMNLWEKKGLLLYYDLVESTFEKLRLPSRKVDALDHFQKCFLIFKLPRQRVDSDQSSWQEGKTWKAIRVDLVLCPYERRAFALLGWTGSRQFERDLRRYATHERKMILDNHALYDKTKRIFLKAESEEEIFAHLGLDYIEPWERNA
# The list shows a part of the results. For some of these results: The exact form of the protein is not confirmed.
# Columns and labels:
# Assay in all cases: protein microarray (ProtoArray v5.0), streptavidin-Alexa Fluor 647
# Conditions in all cases: 3'-biotin; 20 mM Tris (pH 7.5), 5 mM MgCl2, 100 mM KCl, 0.1% Tween-20, A/T-rich and random oligonucleotide blockers; temperature not stated; high values mean tight binding
# [1] = test system: DMPK (human)
# [2] = test system: DNA replication complex GINS protein PSF3 (human)
# [3] = test system: DNA-directed RNA polymerase II subunit RPB11-a (human)
# [4] = test system: DNAJB8 (human)
# [5] = test system: DNAJC12 (human)
# [6] = test system: DNAJC5G (human)
# [7] = test system: DNAL1 (human)
# [8] = molecular target: T1, DNAL4 (UniProt O96015)
# T1 sequence: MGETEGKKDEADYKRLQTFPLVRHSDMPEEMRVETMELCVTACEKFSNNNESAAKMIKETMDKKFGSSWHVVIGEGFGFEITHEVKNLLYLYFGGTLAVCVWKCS
# [9] = molecular target: DNTT (UniProt P04053)
# [10] = test system: DPCR1 (human)
sequence,measurement,setting,value
GGTGACAGGGGTATGGGGAGGGG [G4-2 biotinylated (Ct1)],binding signal,[1],-0.379 z-score
same,binding signal,[2],-0.398 z-score
same,binding signal,[3],-0.395 z-score
same,binding signal,[4],-0.365 z-score
same,binding signal,[5],-0.378 z-score
same,binding signal,[6],-0.382 z-score
same,binding signal,[7],-0.366 z-score
same,binding signal,[8],-0.387 z-score
same,binding signal,[9],5.82 z-score
same,binding signal,[10],-0.375 z-score
